Assay results: the supplement of paper PMC10338343
± gives the standard deviation. The entries are a selection whose mix differs from that of the whole data set. Many of these values have a large error. The list shows a part of the results.

Key:
[1] = test system: MILI (PIWIL2) piRISC loaded with L1MC piRNA (26 nt); assay: pre-steady-state target cleavage rate (min^-1); higher = faster piRNA-guided slicing of the target; settings: guide: L1MC piRNA 5'p-UAACUAAAUACUAUGCAAGCUGUAGG; auxiliary factor: none (no GTSF1)
In short: (§1)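 Cleave-'n-Seq: 1 nM active affinity-purified piRISC with one synthetic guide and 0.1 nM transcribed, DNA-blocked target RNA library were mixed, with or without 500 nM GTSF1 partner protein, in HEPES–potassium acetate buffer at 33 °C for 0–8 or 0–960 min. Uncleaved targets were sequenced and normalised to depth and to weakly complementary targets, three trials were pooled, and k3 was capped at 0.0001 min^-1. The pre-steady-state cleavage rate was fitted […].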

[2] = test system: MIWI (PIWIL1) piRISC loaded with L1MC piRNA (30 nt); assay: as above; settings: guide: L1MC piRNA 5'p-UAACUAAAUACUAUGCAAGCUGUAGGUCCU
In short: as §1

[3] = test system: EfPiwi piRISC loaded with L1MC piRNA (26 nt); assay: pre-steady-state target cleavage rate (min^-1); guide: L1MC piRNA 5'p-UAACUAAAUACUAUGCAAGCUGUAGG; MIWI and MILI are mouse PIWI proteins and EfPiwi is from a freshwater sponge; tags in brackets are library labels; higher = faster piRNA-guided slicing of the target
In short: as §1

[4] = auxiliary factor: none (no GTSF1)
[5] = auxiliary factor: 500 nM Ephydatia muelleri Gtsf1

Sequence	pre-steady-state target cleavage rate [1]	pre-steady-state target cleavage rate [2, 4]	pre-steady-state target cleavage rate [3, 5]	pre-steady-state target cleavage rate ([2]; auxiliary factor: 500 nM mouse GTSF1)	pre-steady-state target cleavage rate ([3]; auxiliary factor: none (no Gtsf1))
UCCUGGAUGAGCUUGCAUAGUAUUAUGUAA	0.000663 ± 0.0072	0.00181 ± 0.0034	0.000677 ± 0.0063	–	–
UCCUGGAACAGGAUGCAUAGUAUUUAGAAA	0.000882 ± 0.0043	0.001 ± 0.0043	0.00257 ± 0.0016	–	–
UCCUGGAUGUCCUACGAUAGUAUUUAGUAA	0.000305 ± 0.014	0.000517 ± 0.012	0.000197 ± 0.017	–	–
UCCUGGAUGUCGUUGCAUAGAUAUUAGUUA	0.000627 ± 0.0084	0.00085 ± 0.008	0.000746 ± 0.0087	–	–
UCCUGGAUGUCCUUGCAUUGUAUUUAGAUA	0.00143 ± 0.0046	0.000912 ± 0.0068	0.00121 ± 0.0044	–	–
UCCUGGAUGUCCUUGCAUAGUUUUUACUUA	0.000977 ± 0.0062	0.00111 ± 0.0051	0.000266 ± 0.0088	–	–
UCCUGGAUGUGCUUGCAUUGAAUUUAGUUA	0.00202 ± 0.0036	0.000871 ± 0.0039	0.000205 ± 0.025	–	–
UCCUGGAUGUGCUUGCAUUCAAUUUAGAAA	0.000228 ± 0.02	0.000437 ± 0.017	0.000268 ± 0.013	–	–
UCCUGCUACAGGUUGCAUAGUAUUUUCAAA	0.000789 ± 0.0073	0.000921 ± 0.0069	0.00243 ± 0.0019	–	–
UCCUGGAUGUCGAUCAUAGUAUUUAGUUA	0.00113 ± 0.0037	0.000611 ± 0.0073	0.000492 ± 0.0073	–	–
UCCUGGAACAGGUUCCAUAGUAUUUAGUUA	0.000527 ± 0.015	0.000242 ± 0.025	0.00255 ± 0.0024	–	–
UCCUGGAUGUCCUUGCAUAGUAAUUAGAUA	0.000678 ± 0.0092	0.0013 ± 0.0059	0.00232 ± 0.0046	–	–
UCCUGCUACAGCUACGAUAGUAUUUAGUAA	0.00108 ± 0.0051	0.000835 ± 0.006	0.00129 ± 0.0066	–	–
UCCUGGAUGUCGUUGCAUAGAAUUUUGUUA	0.000536 ± 0.01	–	–	0.000123 ± 0.031	0.000254 ± 0.024
UCCUGGAUGUCGAUGCAAUGUAUUUAGUUA	0.000511 ± 0.0088	0.000841 ± 0.0063	0.000325 ± 0.0076	–	–
UCCUGGAUGUCGUUGCAUAGUAUUUAGGUUA	0.00289 ± 0.0046	0.00139 ± 0.0058	0.000556 ± 0.0077	–	–
UCCUGGAUGACGAUGCAUAGUAUUUACAAA	0.000526 ± 0.016	0.000709 ± 0.012	0.00111 ± 0.0044	–	–

A run of entries taken from the entries so far:
Sequence	pre-steady-state target cleavage rate [1]	pre-steady-state target cleavage rate [2, 4]	pre-steady-state target cleavage rate [3, 5]	pre-steady-state target cleavage rate ([2]; auxiliary factor: 500 nM mouse GTSF1)	pre-steady-state target cleavage rate ([3]; auxiliary factor: none (no Gtsf1))
UCCUGGAUGUCCUACGAUAGUAUUUAGUAA	0.000305 ± 0.014	0.000517 ± 0.012	0.000197 ± 0.017	–	–
UCCUGGAUGUCGUUGCAUAGAUAUUAGUUA	0.000627 ± 0.0084	0.00085 ± 0.008	0.000746 ± 0.0087	–	–
